Assay results from publication PMC11848624.
Results are given in words; binding and its absence hold for the method and conditions named. In cells and extracts the contact can be indirect. Some binding calls cover weakened binding; strength is not graded here. For part of these data: Tags and fused reporters may be left off the sequences shown.

Protein sequences, listed by entry. Tags and fused reporters are not part of them.
UniProt P19474: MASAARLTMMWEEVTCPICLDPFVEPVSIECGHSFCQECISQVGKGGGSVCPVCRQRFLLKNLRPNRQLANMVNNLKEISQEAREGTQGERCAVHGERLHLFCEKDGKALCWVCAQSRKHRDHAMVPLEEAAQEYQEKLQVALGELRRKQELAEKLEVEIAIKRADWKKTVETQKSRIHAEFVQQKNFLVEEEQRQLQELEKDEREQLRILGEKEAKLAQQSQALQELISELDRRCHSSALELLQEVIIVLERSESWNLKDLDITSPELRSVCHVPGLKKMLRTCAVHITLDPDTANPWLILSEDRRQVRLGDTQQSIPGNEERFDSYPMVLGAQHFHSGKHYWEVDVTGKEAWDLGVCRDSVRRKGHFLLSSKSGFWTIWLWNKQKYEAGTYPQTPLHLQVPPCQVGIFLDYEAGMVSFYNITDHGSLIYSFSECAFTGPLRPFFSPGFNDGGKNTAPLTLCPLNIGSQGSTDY

What was measured:
FLAG-TRIM21 [1] = target: FLAG-TRIM21 (UniProt P19474); test: co-IP; BXPC3 and SW1990 cells overexpressing FLAG-TRIM21, WT cells as negative control; immunoprecipitation with FLAG-magnetic beads, overnight at 4 °C; blot for EPHX1
[2] = target: TRIM21 (endogenous) (human (endogenous in BXPC3 and SW1990)) (UniProt P19474); test: co-IP; endogenous proteins in BXPC3 and SW1990 cells (Figure S4D,E)
FLAG-TRIM21 [3] = target: FLAG-TRIM21 (UniProt P19474); test: co-IP; BXPC3 and SW1990 cells transfected with FLAG-TRIM21 and HIS-EPHX1, treated 48 h with different concentrations of Bezafibrate
FLAG-TRIM21 [4] = target: FLAG-TRIM21 (UniProt P19474); test: co-IP; HIS-EPHX1^K105R compared with EPHX1 for the interaction with TRIM21 (Figure S5E); cells and bait not stated
FLAG-TRIM21 [5] = target: FLAG-TRIM21 (UniProt P19474); test: co-IP; HEK293T cells co-transfected with HIS-EPHX1 and full-length or truncated FLAG-TRIM21; bait not stated

binding (FLAG-TRIM21 [1]) | binding [2] | binding (FLAG-TRIM21 [3]) | binding (FLAG-TRIM21 [4]) | binding (FLAG-TRIM21 [5]) | Binder
binds | binds | – | – | – | EPHX1 (endogenous) (enzyme, UniProt P07099 1-455) MWLEILLTSVLGFAIYWFISRDKEETLPLEDGWWGPGTRSAAREDDSIRPFKVETSDEEIHDLHQRIDKFRFTPPLEDSCFHYGFNSNYLKKVISYWRNEFDWKKQVEILNRYPHFKTKIEGLDIHFIHVKPPQLPAGHTPKPLLMVHGWPGSFYEFYKIIPLLTDPKNHGLSDEHVFEVICPSIPGYGFSEASSKKGFNSVATARIFYKLMLRLGFQEFYIQGGDWGSLICTNMAQLVPSHVKGLHLNMALVLSNFSTLTLLLGQRFGRFLGLTERDVELLYPVKEKVFYSLMRESGYMHIQCTKPDTVGSALNDSPVGLAAYILEKFSTWTNTEFRYLEDGGLERKFSLDDLLTNVMLYWTTGTIISSQRFYKENLGQGWMTQKHERMKVYVPTGFSAFPFELLHTPEKWVRFKYPKLISYSYMVRGGHFAAFEEPELLAQDIRKFLSVLERQ
– | – | binds | binds | binds | HIS-EPHX1 (enzyme, UniProt P07099 1-455) MWLEILLTSVLGFAIYWFISRDKEETLPLEDGWWGPGTRSAAREDDSIRPFKVETSDEEIHDLHQRIDKFRFTPPLEDSCFHYGFNSNYLKKVISYWRNEFDWKKQVEILNRYPHFKTKIEGLDIHFIHVKPPQLPAGHTPKPLLMVHGWPGSFYEFYKIIPLLTDPKNHGLSDEHVFEVICPSIPGYGFSEASSKKGFNSVATARIFYKLMLRLGFQEFYIQGGDWGSLICTNMAQLVPSHVKGLHLNMALVLSNFSTLTLLLGQRFGRFLGLTERDVELLYPVKEKVFYSLMRESGYMHIQCTKPDTVGSALNDSPVGLAAYILEKFSTWTNTEFRYLEDGGLERKFSLDDLLTNVMLYWTTGTIISSQRFYKENLGQGWMTQKHERMKVYVPTGFSAFPFELLHTPEKWVRFKYPKLISYSYMVRGGHFAAFEEPELLAQDIRKFLSVLERQ
– | – | – | binds | – | HIS-EPHX1^K105R (enzyme, UniProt P07099 1-455) MWLEILLTSVLGFAIYWFISRDKEETLPLEDGWWGPGTRSAAREDDSIRPFKVETSDEEIHDLHQRIDKFRFTPPLEDSCFHYGFNSNYLKKVISYWRNEFDWKRQVEILNRYPHFKTKIEGLDIHFIHVKPPQLPAGHTPKPLLMVHGWPGSFYEFYKIIPLLTDPKNHGLSDEHVFEVICPSIPGYGFSEASSKKGFNSVATARIFYKLMLRLGFQEFYIQGGDWGSLICTNMAQLVPSHVKGLHLNMALVLSNFSTLTLLLGQRFGRFLGLTERDVELLYPVKEKVFYSLMRESGYMHIQCTKPDTVGSALNDSPVGLAAYILEKFSTWTNTEFRYLEDGGLERKFSLDDLLTNVMLYWTTGTIISSQRFYKENLGQGWMTQKHERMKVYVPTGFSAFPFELLHTPEKWVRFKYPKLISYSYMVRGGHFAAFEEPELLAQDIRKFLSVLERQ
